# This is a selection; strong and weak results do not stand in their true shares. Calls of active or inactive are those of the source. Cut-off read from the data, not from the text of the source: active = activity change below about -70% (passing the limit was not always enough); inconclusive = no clear call, values can overlap the other calls.
# Assay: T. gondii growth inhibition with IFN-gamma, primary screen, cell-based (AID 1259416);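 note: host cells are HeLa cells infected with Toxoplasma gondii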
# Settings: Toxoplasma gondii growth in IFN-gamma-treated host cells; active compounds read low; concentration not given here
row,Compound,"activity change, negative = inhibition"
1,O=C1NC(=O)c2c1c(-c1ccccc1)cc1[nH]c3ccc(O)cc3c21,active: -82.9%

# Reference: PubChem BioAssay AID1259416 (Broad Institute, 2018)
